These are yes or no findings as the source states them, for the method shown. Some entries that bind do so weakly or less than the wild type. Tags and fused reporters may be left off the sequences shown.
Molecular target: YG4-C638F (mutated YG4, His-tagged) (Escherichia coli) (UniProt P0AG20)
Experiment: cross-linking; 10 ul with 12.5 mM Na phosphate pH 7.2, 12.5 mM NaCl, 2.5% glycerol, 1 x 10^-3% glutaraldehyde, 4 ug of protein; 15 min on ice; SDS-PAGE and Western blot with anti-His antibody; both purified

B1: YG4-C638F (mutated YG4, His-tagged) (domain or fragment, UniProt P0AG20 564-744)
chain: FNKPSAEEQDAAALKQLQQKSYTPQNRSKDNGRVVVEGVGNLMHHIARCCQPIPGDEIVGFITQGRGISVHRADFEQLAELRSHAPERIVDAVWGESYSAGYSLVVRVVANDRSGLLRDITTILANEKVNVLGVASRSDTKQQLATIDMTIEIYNLQVLGRVLGKLNQVPDVIDARRLHGS
In the case of B1, the binding is reported as “binds weakly”.
